Results are given in words; binding and its absence hold for the method and conditions named. Binding seen in cells or lysates may run through a third protein. Some results given as binding are weak or reduced against the parent protein; the word gives no strength.
Target: PKCθ (not stated (endogenous in PA cell lines; mouse and rat lines were used)) (UniProt Q02111)
Experiment: co-IP; lysate of PA cells (IP lysis buffer, phosphorylated protease inhibitors cocktail) incubated with PKCθ antibodies bound to Protein Magnetic Beads; eluted with SDS-PAGE loading buffer; blots for IKKα, p-IKKα/β, IKBα and p-IKBα; cells treated with PMA

Sequences of proteins named here, by UniProt entry; tags and fusion partners are left off.
UniProt Q02111: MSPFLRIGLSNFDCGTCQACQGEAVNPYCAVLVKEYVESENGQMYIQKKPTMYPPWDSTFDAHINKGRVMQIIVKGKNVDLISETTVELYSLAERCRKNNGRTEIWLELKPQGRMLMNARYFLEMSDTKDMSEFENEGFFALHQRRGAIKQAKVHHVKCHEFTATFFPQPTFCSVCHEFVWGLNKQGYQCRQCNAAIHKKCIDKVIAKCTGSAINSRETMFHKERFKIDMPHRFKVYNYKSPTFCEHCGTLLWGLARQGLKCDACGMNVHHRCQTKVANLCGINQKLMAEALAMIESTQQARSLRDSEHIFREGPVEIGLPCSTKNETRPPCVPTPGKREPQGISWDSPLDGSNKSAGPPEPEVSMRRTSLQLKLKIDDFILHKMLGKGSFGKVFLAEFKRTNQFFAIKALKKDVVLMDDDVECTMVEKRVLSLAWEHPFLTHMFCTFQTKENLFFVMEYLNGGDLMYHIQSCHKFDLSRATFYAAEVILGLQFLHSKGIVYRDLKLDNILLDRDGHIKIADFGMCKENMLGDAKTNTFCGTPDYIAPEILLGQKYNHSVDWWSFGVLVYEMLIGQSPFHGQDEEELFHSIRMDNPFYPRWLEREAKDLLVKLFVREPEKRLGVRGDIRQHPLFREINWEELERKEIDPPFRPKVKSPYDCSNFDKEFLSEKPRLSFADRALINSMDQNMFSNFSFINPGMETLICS

B1: IKKα (enzyme, UniProt Q60680 1-745)
chain: MERPPGLRPGAGGPWEMRERLGTGGFGNVSLYQHRELDLKIAIKSCRLELSSKNRERWCHEIQIMKKLDHANVVKACDVPEELNFLINDVPLLAMEYCSGGDLRKLLNKPENCCGLKESQILSLLSDIGSGIRYLHENKIIHRDLKPENIVLQDVGGKTIHKIIDLGYAKDVDQGSLCTSFVGTLQYLAPELFENKPYTATVDYWSFGTMVFECIAGYRPFLHHLQPFTWHEKIKKKDPKCIFACEEMTGEVRFSSHLPQPNSLCSLIVEPMESWLQLMLNWDPQQRGGPIDLTLKQPRCFALMDHILNLKIVHILNMTSAKIISFLLPCDESLHSLQSRIERETGINTGSQELLSETGISLDPRKPASQCVLDGVRGCDSYMVYLFDKSKTVYEGPFASRSLSDCVNYIVQDSKIQLPIIQLRKVWAEAVHYVSGLKEDYSRLFQGQRAAMLSLLRYNANLTKMKNTLISASQQLKAKLEFFRKSIQLDLERYSEQMTYGISSEKMLKAWKEMEEKAIHYSEVGVIGYLEDQIMSLHTEIMELQKSPYGRRQGDLMESLEQRAIDLYKQLKHRPPDHLYSDSTEMVKIIVHTVQSQDRVLKELFGHLSKLLGCKQKIIDLLPKVEVALSNIKEADNTVMFMQGKRQKEIWHLLKIACTQSSARSLVGSSLEGTVTPPVSAWLPPTLADREHPLTCVVTPQDGETLAQMIEENLNCLGHLSTIIREANEDQSSSLMSLDWSWLAE
  binding: binds
